# The list shows a part of the results.
# B1: il10ra_site1_normal_mot_HHH_b1_02062_000000185_0001_1_20_H_._HHH_b2_02790_af2_0001_0000600027_0000002_0 (protein)
# chain: SSSSDASEEAYELSRKAAELASEGDEEEFEKVVKEAEELAEEANNEIIRFALEHLKRTLESSSSS
# B2: il10ra_site1_sap_14_mot_8756ee2cf497b5429c717dfc0c0bcfd6_0001_000000186_0001_1_13_H_._HHH_b2_06886_af2_0001_0000600033_0000001_0_0001 (protein)
# chain: SSSSDLEEEIKELLEELQELIEEGDSEEALRLAMRILRLIFRLGNPELLEEVWRLVRRLRSSSSS
# B3: il10ra_site1_normal_mot_HHH_b2_06602_000000226_0001_1_16_H_._HHH_b1_00527_0001_0000200022_0000001_0_af2pred_0001 (protein)
# chain: SSSSSEEEELEEELFKLLAELYRTGDPRLREEVEELAKRIEEENPELRQFAQAVLRSAELLSSSS
# B4: il10ra_site1_sap_20_mot_HHH_b2_03220_af2_000000223_0001_23_40_H_._HHH_b1_06492_0001_0000300022_0000001_0_0001_af2pred_0001 (protein)
# chain: SSSSDRDEEAVRRALEFAEWLYRQGDERAVRIILKAAEDIAKRANDPELERLVKEVEEELSSSSS
# B5: il10ra_site1_sap_18_mot_HHH_b1_07097_af2_000000269_0001_1_16_H_._HHH_b2_05178_af2_0001_0000200016_0000001_1_0001 (protein)
# chain: SSSDELEEYAELTKRFIRFLLENGDKESVRRMLKALKDIAKQLNDEELEEEIKELRELLEELSSS
# B6: il10ra_site1_normal_mot_8756ee2cf497b5429c717dfc0c0bcfd6_0001_000000186_0001_1_13_H_._HHH_b1_02412_af2_0001_0000300023_0000001_0_af2pred_0001 (protein)
# chain: SSSSSLAEQVLELIREAMELLSEGNPEEAEKLLEEAEELAEEAGNEALRAVLEFILKHVRQSSSS
# B7: il10ra_site1_normal_mot_8756ee2cf497b5429c717dfc0c0bcfd6_0001_000000186_0001_1_13_H_._HHH_b1_02484_0001_0000400032_0000001_0_af2pred_0001 (protein)
# chain: SSSSDTEEVFRLLQRLARLVREGDREEFEKLFEEAQRLIEEAGSAVLRAILEFLEEAIEKNSSSS
# B8: il10ra_site1_normal_mot_8756ee2cf497b5429c717dfc0c0bcfd6_0001_000000186_0001_1_13_H_._HHH_b1_07372_0001_0000100003_0000001_1 (protein)
# chain: SSSSSEEAREVYELIRRAAELHRNGNPEEAEEVLKEAEELAREANNDVLLFQIEYLLRHIGSSSS
# B9: il10ra_site1_sap_19_mot_HHH_b2_08186_000000021_0001_43_56_H_._HHH_b1_05662_0001_0000200024_0000002_0_0001_af2pred_0001 (protein)
# chain: SEEEELLKLLAEVLGVPPETIQEMLERLEKLAGNPEWALELIVRSVIDRDPRFREELEELLRKVK
# B10: il10ra_site1_normal_mot_ems_3hC_416_0001_000000048_0001_1_19_H_._HHH_b1_00201_af2_0001_0000100004_0000002_0 (protein)
# chain: SSSSNEALQEALELSIHAFRAALRGNPEEARELLEEALELAREGGNERLVRQIEELLRTLSSSSS
# B11: il10ra_site1_sap_17_mot_HHH_b1_03763_000000209_0001_22_38_H_._HHH_b1_06016_0001_0000500017_0000001_0_0001 (protein)
# chain: SSSSDDDEELLEAALRIAEQALEAGDPESARLILLAAARIAEELGNEELLEEIRRLLEEIRSSSS
# B12: il10ra_site1_normal_mot_HHH_b2_06979_000000158_0001_42_57_H_._HHH_b2_06581_af2_0001_0000100005_0000001_0 (protein)
# chain: SSSSDEEVQEIIKLLREAAEIEDKEEAQEVVEEALELARELGNELLAINVEFLLEDLRQGSSSSS
# B13: il10ra_site1_sap_14_mot_HHH_b1_00103_000000293_0001_1_15_H_._HHH_b1_04446_0001_0000300019_0000002_0_0001_af2pred_0001 (protein)
# chain: SSSSSDEEQARESVEWFLRAARQIEDEERVRLALRDAKLAAEWLNDPELEELVREVEEELSSSSS
# B14: il10ra_site1_normal_mot_HHH_b2_00273_000000062_0001_23_39_H_._HHH_b1_02914_0001_0001000048_0000001_0 (protein)
# chain: SSSSDREERIEHLLERAEELAEEGNPEEALRLLMEALRLAFELGDEELLQEIWEVARKVASSSSS
# B15: il10ra_site1_normal_mot_HHH_b2_00277_af2_000000172_0001_1_17_H_._HHH_b2_06627_0001_0000100011_0000001_0_af2pred_0001 (protein)
# chain: SSSSDEEEIEEEVRELLEEAKHIEDPRELAYVLTRAYALANRGNDPELRKLVERVAKELISSSSS
# B16: il10ra_site1_sap_18_mot_HHH_b1_01011_000000096_0001_1_19_H_._HHH_b2_02769_0001_0000100001_0000001_0_0001 (protein)
# chain: SSSSDIAEFLAEQALKAAKLLIERGDEEEAREALKVAQRAAEEANNPELVEEIRELLEELNSSSS
# B17: il10ra_site1_sap_25_mot_HHH_b1_01879_000000050_0001_1_18_H_._HHH_b1_01497_af2_0001_0000200008_0000001_1_0001_af2pred_0001 (protein)
# chain: SSSSSSEAEEEIRELLEEAEQIEDKLERSRVLQQALLLARRNNDPELEELVHKVARELLSSSSSS
# B18: il10ra_site1_normal_mot_HHH_b1_06994_000000193_0001_40_55_H_._HHH_b1_00400_0001_0000200006_0000001_0 (protein)
# chain: SSSDKQRRELVRTALVLVEQAVKAGDEETAEFLVISMEIAAEELNDPRLRELVEEAEELINSSSS
# B19: il10ra_site1_normal_mot_HHH_b1_00999_000000080_0001_41_55_H_._HHH_b1_02815_0001_0000700030_0000002_0 (protein)
# chain: SSSSDEEEERSKELLEELEELLRRGDQHRFLRLLQHIVRFAFEVSDEELLHEVWRLAREFGSSSS
# Biological target: il10ra, Q13651
# Test: yeast display titration
row,Binder,apparent Kd
1,B1,inactive: no binding seen
2,B2,inactive: no binding seen
3,B3,inactive: no binding seen
4,B4,inactive: no binding seen
5,B5,inactive: no binding seen
6,B6,inactive: no binding seen
7,B7,inactive: no binding seen
8,B8,inactive: no binding seen
9,B9,inactive: no binding seen
10,B10,inactive: no binding seen
11,B11,inactive: no binding seen
12,B12,inactive: no binding seen
13,B13,inactive: no binding seen
14,B14,inactive: no binding seen
15,B15,inactive: no binding seen
16,B16,inactive: no binding seen
17,B17,inactive: no binding seen
18,B18,inactive: no binding seen
19,B19,inactive: no binding seen

# Look-ups from the results shown.
# apparent Kd, B3 reads inactive: no binding seen
# apparent Kd, B9 reads inactive: no binding seen

# Reference: PMC10163288
